Results deposited as PubChem BioAssay AID1259302 (Sanger Institute, 2017)
Assay: 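Retest in SW1116 cells of candidate synthetic-lethal pairs of kinase and drug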 (follow-up of hits). System: human SW1116 colorectal cancer cells. Knock-down reagent: single siRNA against human genes. Treatment: anchor drugs BYL719 at 1 µM, cetuximab at 5 µg/ml or trametinib at 10 nM, each compared with DMSO vehicle; exposure time not given. Read-out: 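Mean replicate viability as a ratio to pooled non-targeting control siRNA, plus per-drug synergy scores comparing siRNA with drug against each given on its own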. Scale: synergy score with trametinib and synergy score with BYL719 and synergy score with cetuximab: higher = stronger synthetic lethal interaction with the drug; viability, siRNA with DMSO and viability, siRNA with trametinib: higher = more viable cells. Hit rule: 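An siRNA is called active if its synergy score is above 0.10 for at least one of BYL719, cetuximab or trametinib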.
The deposit covers 160 reagents; this is a part drawn at random. In the full data, 122 (76%) were called active. 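Most active calls come from the trametinib arm; viability under BYL719 or cetuximab treatment is not printed.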 Entries without a mark were called inactive. Reagents against one gene are numbered here. Viability is capped at 1. Not stated in the record: the amount of reagent, the time to read-out.

no.	Target gene	reagent no.	synergy score with trametinib	synergy score with BYL719	synergy score with cetuximab	viability, siRNA with DMSO	viability, siRNA with trametinib
1	PRAG1 (PEAK1 related, kinase-activating pseudokinase 1)	1	0.268 (active)	0.00904	0.151	0.75	0.228
2	PRAG1 (PEAK1 related, kinase-activating pseudokinase 1)	2	0.211 (active)	0.229	0.0641	0.831	0.338
3	PRAG1 (PEAK1 related, kinase-activating pseudokinase 1)	3	0.086	-0.0424	0.0979	0.972	0.557
4	PRAG1 (PEAK1 related, kinase-activating pseudokinase 1)	4	0.0799	-0.161	0.098	0.94	0.542
5	CRIM1 (cysteine rich transmembrane BMP regulator 1)	1	0.0864 (active)	-0.146	0.102	0.88	0.496
6	CRIM1 (cysteine rich transmembrane BMP regulator 1)	2	0.0551	0.0144	0.0566	1	0.607
7	CRIM1 (cysteine rich transmembrane BMP regulator 1)	3	0.111 (active)	0.125	0.0411	0.992	0.546
8	CRIM1 (cysteine rich transmembrane BMP regulator 1)	4	0.211 (active)	0.121	0.0709	0.796	0.316
9	MAP3K8 (mitogen-activated protein kinase kinase kinase 8)	1	0.101 (active)	0.0433	-0.00364	0.973	0.543
10	MAP3K8 (mitogen-activated protein kinase kinase kinase 8)	2	0.055	-0.0268	0.0131	0.599	0.341
11	MAP3K8 (mitogen-activated protein kinase kinase kinase 8)	3	0.192 (active)	-0.0121	0.126	0.894	0.4
12	MAP3K8 (mitogen-activated protein kinase kinase kinase 8)	4	0.308 (active)	-0.00468	0.0932	0.93	0.307
13	BRAF (B-Raf proto-oncogene, serine/threonine kinase)	1	0.0446	-0.0422	0.00394	0.868	0.53
14	BRAF (B-Raf proto-oncogene, serine/threonine kinase)	2	0.234 (active)	0.0504	0.0212	0.718	0.24
15	BRAF (B-Raf proto-oncogene, serine/threonine kinase)	3	0.169 (active)	0.0324	-0.0715	0.913	0.434
16	BRAF (B-Raf proto-oncogene, serine/threonine kinase)	4	0.173 (active)	-0.107	-0.0042	0.789	0.349
17	IRAK3 (interleukin 1 receptor associated kinase 3)	1	0.144 (active)	-0.0279	0.115	0.579	0.239
18	IRAK3 (interleukin 1 receptor associated kinase 3)	2	0.291 (active)	-0.155	0.136	0.821	0.252
19	IRAK3 (interleukin 1 receptor associated kinase 3)	3	0.0666 (active)	-0.0325	0.191	0.815	0.473
20	IRAK3 (interleukin 1 receptor associated kinase 3)	4	0.118 (active)	-0.17	0.02	0.877	0.462
21	PINK1 (PTEN induced kinase 1)	1	0.0432	-0.124	0.0346	1	0.618
22	PINK1 (PTEN induced kinase 1)	2	0.256 (active)	0.033	0.12	0.858	0.312
23	PINK1 (PTEN induced kinase 1)	3	0.207 (active)	0.0107	0.151	0.725	0.273
24	PINK1 (PTEN induced kinase 1)	4	0.294 (active)	0.0364	0.0635	0.846	0.266
25	SYNCRIP (synaptotagmin binding cytoplasmic RNA interacting protein)	1	0.248 (active)	-0.185	0.0795	0.576	0.132
26	SYNCRIP (synaptotagmin binding cytoplasmic RNA interacting protein)	2	0.139 (active)	-0.105	-0.0124	0.828	0.409
27	SYNCRIP (synaptotagmin binding cytoplasmic RNA interacting protein)	3	0.199 (active)	0.037	0.28	0.691	0.258
28	SYNCRIP (synaptotagmin binding cytoplasmic RNA interacting protein)	4	0.159 (active)	-0.0036	0.0514	0.925	0.453
29	IKBKB (inhibitor of nuclear factor kappa B kinase subunit beta)	1	0.182 (active)	-0.114	-0.006	0.833	0.369
30	IKBKB (inhibitor of nuclear factor kappa B kinase subunit beta)	2	0.0738	-0.0446	0.0855	0.694	0.386
31	IKBKB (inhibitor of nuclear factor kappa B kinase subunit beta)	3	0.0631 (active)	0.0136	0.144	0.89	0.526
32	IKBKB (inhibitor of nuclear factor kappa B kinase subunit beta)	4	0.0428	-0.0776	-0.0388	0.799	0.486
33	GUCY2D (guanylate cyclase 2D, retinal)	1	0.161 (active)	0.0178	0.0454	0.871	0.415
34	GUCY2D (guanylate cyclase 2D, retinal)	2	0.216 (active)	0.0149	0.142	0.707	0.251
35	GUCY2D (guanylate cyclase 2D, retinal)	3	0.0568	-0.1	-0.0683	0.718	0.418
36	GUCY2D (guanylate cyclase 2D, retinal)	4	0.109 (active)	-0.0894	0.0186	1	0.553
37	KCNH8 (potassium voltage-gated channel subfamily H member 8)	1	0.541 (active)	0.232	0.411	1	0.12
38	KCNH8 (potassium voltage-gated channel subfamily H member 8)	2	0.289 (active)	-0.0749	0.124	0.592	0.102
39	KCNH8 (potassium voltage-gated channel subfamily H member 8)	3	0.268 (active)	-0.0896	0.177	0.961	0.368
40	KCNH8 (potassium voltage-gated channel subfamily H member 8)	4	0.241 (active)	-0.00925	0.116	0.819	0.301
41	AK2 (adenylate kinase 2)	1	0.174 (active)	-0.164	-0.0463	0.893	0.417
42	AK2 (adenylate kinase 2)	2	0.44 (active)	0.114	0.26	1	0.222
43	AK2 (adenylate kinase 2)	3	0.15 (active)	-0.0131	0.00192	1	0.511
44	AK2 (adenylate kinase 2)	4	0.318 (active)	-0.0117	0.267	0.822	0.226
45	MAPK4 (mitogen-activated protein kinase 4)	1	0.12 (active)	0.0915	0.0736	0.94	0.502
46	MAPK4 (mitogen-activated protein kinase 4)	2	0.185 (active)	-0.0666	0.0852	0.813	0.353
47	MAPK4 (mitogen-activated protein kinase 4)	3	0.319 (active)	0.119	0.228	0.999	0.342
48	MAPK4 (mitogen-activated protein kinase 4)	4	0.193 (active)	0.0134	0.126	0.576	0.188
49	MPP3 (MAGUK p55 scaffold protein 3)	1	0.105 (active)	0.0263	0.0951	0.895	0.488
50	MPP3 (MAGUK p55 scaffold protein 3)	2	0.213 (active)	-0.00514	0.0868	0.768	0.295
51	MPP3 (MAGUK p55 scaffold protein 3)	3	0.391 (active)	0.182	0.245	0.75	0.105
52	MPP3 (MAGUK p55 scaffold protein 3)	4	0.342 (active)	0.0355	0.152	0.694	0.117

Looked up above:
MAP3K8 (mitogen-activated protein kinase kinase kinase 8) #3, synergy score with cetuximab → 0.126 (active)
PRAG1 (PEAK1 related, kinase-activating pseudokinase 1) #1, synergy score with BYL719 = 0.00904 (active)
GUCY2D (guanylate cyclase 2D, retinal) #2, viability, siRNA with DMSO: 0.707 (active)
Under “viability, siRNA with trametinib”, KCNH8 (potassium voltage-gated channel subfamily H member 8) #1 reads 0.12 (active)
SYNCRIP (synaptotagmin binding cytoplasmic RNA interacting protein) #2, synergy score with trametinib = 0.139 (active)
